The target of this assay is MyD88^ΔCTE (Drosophila). Kind of assay: co-IP; S2 cells co-transfected, lysed 48 h after transfection (150 mM NaCl, 50 mM Tris-HCl pH 7.4, 10% glycerol, 0.5% Triton X-100); immunoprecipitated with anti-Myc beads, immunoblot (Fig. 4b, 5f).

Results are given in words; binding and its absence hold for the method and conditions named. In cells and extracts the contact can be indirect.

B1: Drosophila Pellino (enzyme, UniProt O77237 1-424)
chain: MVKRTDGTESPILAEDGGDGHDKPRLRYGELVILGYNGYLPQGDRGRRRSKFVLHKRTEASGVKRSKHYIVQSPQTSKAILDANQHSISYTLSRNQAVIVEYKEDTETDMFQVGRSSESPIDFVVMDTLPGDKKDAKVMQSTISRFACRILVNRCEPAKARIFAAGFDSSRNIFLGEKATKWQDNVEIDGLTTNGVLIMHPKGSFCGGNAKCGLWRECSVGGDVFSLRESRSAQQKGQPIYDECNILQDGTLIDLCGATLLWRSAEGLQHSPTKHDLEKLIDAINAGRPQCPVGLNTLVIPRKVNIGDQVNQPYVYLNCGHVQGHHDWGQDENTGARRCPMCLELGPVVTLCMGLEPAFYVDVGAPTYAFNPCGHMATEKTVKYWANVEIPHGTNGFQAVCPFCATPLDGATGYIKLIFQDNLD
B1: the binding entry is recorded as “no binding”.
